From patent US7056728B2, “Compositions and methods for use thereof in modifying the genomes of microorganisms” (priority 2000, dated 2006)
At least one compound was matched to its structure with a doubt left.

Test system: S. pneumoniae pAUL-A Tn4001 luxABCDE km^R
Experiment: growth and colony formation of S. pneumoniae transformants in the presence of kanamycin
Format: cell-based, Streptococcus pneumoniae
Details: kanamycin at 400 μg/ml and higher

For NC[C@H]1O[C@H](O[C@H]2[C@H](O)[C@@H](O[C@H]3O[C@H](CO)[C@@H](O)[C@H](N)[C@H]3O)[C@H](N)C[C@@H]2N)[C@H](O)[C@@H](O)[C@@H]1O [kanamycin], the “growth rate of exponentially dividing culture” value was “dramatically inhibited”.
